The values below come from PubChem BioAssay AID901 (National Center for Advancing Translational Sciences (NCATS), 2007).

This is one part of the list. Further columns of the screen follow, without active or inactive calls. Compounds called inactive in the main read-out are mostly missing here. Words in brackets tell the shape of the fitted curve; partial curves, single points and poor fits give uncertain potencies.

This assay in a line: qHTS Assay for Identifying the Cell-Membrane Permeable IMPase Inhibitors. The note with it: CHO-M1 cells, IP1 accumulation, HTRF TR-FRET ratio; measured here: donor channel 620 nm AC50. Background: qHTS replaces the single test concentration by a dilution series.
In the case of `COc1cc2c(cc1NC(=O)COc1ccc(Br)cc1C)oc1ccccc12`, the AC50 is 0.00708 µM [rising, full curve].

As to `CONC(=O)C1CCN(C(=O)OCc2ccccc2)CC1`, the AC50 is 0.562 µM [falling, full curve, poor fit].

Consider `CCOc1ccc(NC(=O)CSc2ncnc3c2sc2ccccc23)cc1`, for which the AC50 was 15.8 µM [rising, partial curve].

Regarding `COc1cccc2cc(C(=O)C3=C(O)C(=O)N(Cc4ccco4)C3c3cccnc3)oc12` (stereo not drawn), the AC50 is 12.6 µM [rising, partial curve].

`CCOC(=O)c1c(C)[nH]c(C)c1C(=O)COC(=O)c1cccc(S(=O)(=O)N(CC)CC)c1`: the AC50 is 0.01 µM [rising, full curve, poor fit].

Regarding `NNc1nc(NCc2ccccc2)nc(N2CCOCC2)n1`, the AC50 is 31.6 µM [falling, single point].

Regarding `COc1ccc(OC)c2sc(NC(=O)c3ccc(S(=O)(=O)N4CCOCC4)cc3)nc12`, the AC50 is 5.62 µM [falling, full curve, poor fit].

Turning to `CCOC(=O)c1sc(N2C(=O)c3oc4ccccc4c(=O)c3C2c2ccc(C(C)(C)C)cc2)nc1C` (stereo not drawn), the AC50 is 35.5 µM [falling, single point].

Consider `COCC(=O)N(C)c1nnc(-c2ccc([N+](=O)[O-])cc2)s1`, for which the AC50 was 31.6 µM [falling, single point].

As to `COc1cc(-c2nnc(COc3ccc4cc(Br)ccc4c3)o2)cc(OC)c1OC`, the AC50 is 15.8 µM [rising, single point].

In the case of `O=C1c2cccc3c([N+](=O)[O-])ccc(c23)C(=O)N1c1ccccn1`, the AC50 is 12.6 µM [falling, partial curve].

`CS(=O)(=O)N1CCN(C(=O)c2ccc(F)cc2)CC1`: the AC50 is 0.158 µM [falling, full curve, poor fit].

As to `COc1ccc(/C=C2\CCn3c2nc2cc(C(=O)O)ccc2c3=O)cc1O`, the AC50 is 20 µM [falling, partial curve, poor fit].

Consider `CCOC(=O)c1nn(-c2ccccc2C)c2nc(-c3ccc(C)cc3)c(C#N)c(=O)n12`, for which the AC50 was 31.6 µM [rising, single point].

With `CCOC(=O)C(NC(=O)c1ccccc1)(Nc1nnc(C)s1)C(F)(F)F` (stereo not drawn), the AC50 is 35.5 µM [falling, single point].

Take `CC(=O)O[C@]1(C(C)=O)CC[C@@H]2[C@@H]3C=C(Cl)C4=CC(=O)[C@H]5C[C@@H]5[C@]4(C)[C@H]3CC[C@]21C`: the AC50 was 2.51 µM [falling, partial curve].

Take `Cc1ccc2oc(=O)c3cnn(CC(=O)N4CCCc5ccccc54)c3c2c1`: the AC50 is 35.5 µM [rising, single point].

Consider `CN(C(=O)c1ccccc1)c1ccc(OCC(=O)NC2CCS(=O)(=O)C2)cc1` (stereo not drawn), for which the half-maximal activity concentration (AC50) was 0.398 µM [rising, full curve, poor fit].

For `Cc1ccc(-c2cc(C(=O)NCc3cn(C)nc3C)c3cc(Br)ccc3n2)cc1`, the AC50 was 14.1 µM [rising, partial curve, poor fit].

`Cc1cc(NC(=O)CC(C)(C)C)nc2c1c(=O)oc1ccccc12`: the AC50 was 0.00501 µM [falling, full curve, poor fit].

On to `O=C(Nc1ccc(Cl)cc1C(=O)N1CCOCC1)c1ccco1`, for which the AC50 was 11.2 µM [falling, partial curve, poor fit].

As for `Cc1cc(C)c(C)c(S(=O)(=O)N2CCC(C(=O)OCC(=O)N3c4ccccc4NC(=O)C3(C)C)CC2)c1C`, the AC50 was 10 µM [falling, partial curve].

In the case of `O=C(/C=C/c1ccc(Cl)cc1Cl)NCc1ccncc1`, the concentration at half-maximal activity (AC50) is 10 µM [falling, partial curve, poor fit].

Take `O=C(CSc1nc2ccccc2o1)NCCOc1ccccc1`: the AC50 was 0.0251 µM [rising, full curve, poor fit].

Regarding `CSc1nnc2c(n1)c(C)nn2-c1cccc(C)c1`, the half-maximal activity concentration (AC50) is 0.126 µM [rising, single point].

On to `CCCN(CCC)C(=O)Cn1c(=O)n(CCCCCC(=O)Nc2ccccc2)c(=O)c2sccc21`, for which the AC50 is 17.8 µM [rising, partial curve].

For `O=C1c2ccccc2C(=O)N1Cc1nn2c(-c3ccc(Cl)cc3)nnc2s1`, the AC50 was 31.6 µM [rising, single point].

On to `CCSc1nc(N)c(C#N)c(-c2ccco2)c1C#N`, for which the AC50 was 1 µM [falling, full curve].

For the molecule `COc1ccc(CC(=O)Nc2nnc(C)s2)cc1`, the AC50 was 1 µM [falling, full curve, poor fit].

For the molecule `COc1nc(N)c(S(=O)(=O)c2ccc(C)cc2)cc1C#N`, the AC50 was 3.16 µM [rising, single point].

In the case of `CCC(C)(C)NC(=O)C(c1cccnc1)N(CCOC)C(=O)Cn1nnc2ccccc21` (stereo not drawn), the AC50 is 10 µM [falling, partial curve].

As to `O=C(c1ccco1)N1CCN(C(c2ccccc2F)c2nnnn2Cc2cccs2)CC1` (stereo not drawn), the AC50 was 15.8 µM [rising, single point].

Turning to `CCOc1ccc(CCNC(=O)c2cc3cc4cc(OC)ccc4nc3s2)cc1OCC`, the AC50 was 3.98 µM [rising, single point].

In the case of `CC(C)(C)c1ccc(S(=O)(=O)NCCc2ccncc2)cc1`, the AC50 was 10 µM [falling, single point].

As to `CCOC(=O)c1c(Nc2ccc(OC)cc2)nnc(-c2ccccc2)c1-c1ccccc1`, the AC50 is 1.12 µM [falling, full curve, poor fit].

Turning to `CCOc1ccc(NC(=O)COc2ccc(S(=O)(=O)NC3CCCCC3)cc2)cc1`, the AC50 was 0.1 µM [falling, full curve, poor fit].

Turning to `CC(C)c1ccc(OCC(=O)N(Cc2cccs2)C2CCS(=O)(=O)C2)cc1` (stereo not drawn), the AC50 was 0.00891 µM [rising, full curve, poor fit].

For `O=C1CCCC2=C1C(c1ccc3c(c1)OCO3)c1c([nH]n(-c3ccccc3)c1=O)N2` (stereo not drawn), the AC50 is 12.6 µM [falling, partial curve].

For the molecule `CCc1nn2c(=O)c(S(=O)(=O)Nc3ccc(Cl)cc3)c(C)nc2s1`, the AC50 was 1.58 µM [falling, partial curve, poor fit].

Consider `CCC(CC)c1nnc(NC(=O)CCN2C(=O)c3ccccc3C2=O)s1`, for which the AC50 was 3.98 µM [rising, partial curve].

With `Cc1ccc(S(=O)(=O)C(C#N)c2nc3ccccc3nc2N2CCCC2)cc1C` (stereo not drawn), the AC50 was 0.0316 µM [rising, full curve, poor fit].

Turning to `COc1ccc([N+](=O)[O-])cc1NC(=O)C(C)OC(=O)C1c2ccccc2Oc2ccccc21` (stereo not drawn), the AC50 is 0.0126 µM [rising, full curve, poor fit].

As to `CCOC(=O)c1oc2ccccc2c1NC(=O)c1ccc(S(=O)(=O)N2CCCC2)cc1`, the AC50 is 0.0126 µM [rising, full curve, poor fit].

For `CC(=O)N1C(=O)N(C)C2C1N(C(C)=O)C(=O)N2C` (stereo not drawn), the AC50 was 0.631 µM [falling, full curve].

As for `Cc1ccc(S(=O)(=O)N2CCOCC2)cc1C(=O)NCc1cccnc1`, the AC50 is 0.631 µM [falling, full curve, poor fit].

In the case of `Cc1ccccc1OCC(=O)NCCC(=O)O`, the AC50 is 0.1 µM [rising, full curve, poor fit].

Turning to `COc1ccc(-c2cc(C(F)(F)F)nc(SCC(=O)NCCc3ccccc3)n2)cc1`, the AC50 is 35.5 µM [rising, single point].

With `Cc1n[nH]c(=O)n1-c1ccc(Oc2ccccc2)cc1`, the AC50 is 20 µM [falling, single point].

Regarding `CCN1CCN(CCNC(=O)c2cn(Cc3ccccc3F)nn2)CC1`, the AC50 is 1 µM [falling, full curve].

On to `O=C(COc1ccc([N+](=O)[O-])cc1)N/N=C/c1ccccn1`, for which the AC50 is 31.6 µM [falling, single point].

Turning to `Cc1nnc(NC(=O)c2c(F)c(F)c(F)c(F)c2F)s1`, the AC50 is 5.62 µM [falling, single point].

Take `CCOc1ccc(NC(=O)CSc2nnc(C)n2CC2CCCO2)cc1` (stereo not drawn): the AC50 was 0.1 µM [falling, full curve, poor fit].

In the case of `Cc1cccc(COc2ccc(/C(O)=C3\C(=O)C(=O)N(CCN(C)C)C3c3ccncc3)cc2)c1` (stereo not drawn), the AC50 was 0.126 µM [falling, single point].

Consider `COC(=O)c1cc2c(ccn2-c2ccc(F)cc2)n1CC(=O)N1CCN(C(=O)c2ccco2)CC1`, for which the AC50 was 0.0316 µM [falling, full curve, poor fit].

`O=c1oc2ccccc2c(N2CCN(c3ccccc3F)CC2)c1CN1CCCC1`: the AC50 is 3.98 µM [falling, partial curve].

With `c1ccc2c(c1)CCN(c1nc3cc4c(cc3s1)OCCO4)C2`, the AC50 was 3.16 µM [falling, single point].

As to `COc1ccc(NC(C)=O)cc1NC(=O)CSc1nnc(-c2ccncc2)n1C`, the AC50 is 0.251 µM [falling, full curve].

`Cc1ccc(C2C(C(N)=S)=C(N)OC3=C2C(=O)CC(C)(C)C3)cc1` (stereo not drawn): the AC50 is 31.6 µM [rising, single point].

As for `COc1ccc(C(NC(=O)c2c(F)c(F)c(F)c(F)c2F)c2ccccc2)cc1` (stereo not drawn), the AC50 was 2.82 µM [falling, single point].

As to `O=C(CN1C(=O)c2cccc3cccc1c23)Nc1ccc(S(=O)(=O)N2CCOCC2)cc1`, the AC50 is 31.6 µM [falling, single point].

For `COc1ccccc1N1CCN(C(=O)c2cc(-c3ccc(Cl)cc3)on2)CC1`, the AC50 is 0.02 µM [falling, full curve, poor fit].

On to `Cc1occc1C(=O)Nc1ccc2c(c1)OCCO2`, for which the AC50 is 0.126 µM [falling, full curve].

On to `Cc1c(/C(O)=C2/C(=O)C(=O)N(Cc3cccnc3)C2c2cccs2)cnn1-c1ccccc1` (stereo not drawn), for which the AC50 was 20 µM [rising, partial curve].

For orientation: AC50 means the concentration giving half of the maximal activity seen.
